Test results as given in paper doi:10.1101/765735.
These are yes or no findings as the source states them, for the method shown. Binding seen in cells or lysates may run through a third protein. Some results given as binding are weak or reduced against the parent protein; the word gives no strength.

Chains of the proteins cited; added tags and fusions are not shown. Residues count along the entry.
UniProt P08543, residues 2-1137: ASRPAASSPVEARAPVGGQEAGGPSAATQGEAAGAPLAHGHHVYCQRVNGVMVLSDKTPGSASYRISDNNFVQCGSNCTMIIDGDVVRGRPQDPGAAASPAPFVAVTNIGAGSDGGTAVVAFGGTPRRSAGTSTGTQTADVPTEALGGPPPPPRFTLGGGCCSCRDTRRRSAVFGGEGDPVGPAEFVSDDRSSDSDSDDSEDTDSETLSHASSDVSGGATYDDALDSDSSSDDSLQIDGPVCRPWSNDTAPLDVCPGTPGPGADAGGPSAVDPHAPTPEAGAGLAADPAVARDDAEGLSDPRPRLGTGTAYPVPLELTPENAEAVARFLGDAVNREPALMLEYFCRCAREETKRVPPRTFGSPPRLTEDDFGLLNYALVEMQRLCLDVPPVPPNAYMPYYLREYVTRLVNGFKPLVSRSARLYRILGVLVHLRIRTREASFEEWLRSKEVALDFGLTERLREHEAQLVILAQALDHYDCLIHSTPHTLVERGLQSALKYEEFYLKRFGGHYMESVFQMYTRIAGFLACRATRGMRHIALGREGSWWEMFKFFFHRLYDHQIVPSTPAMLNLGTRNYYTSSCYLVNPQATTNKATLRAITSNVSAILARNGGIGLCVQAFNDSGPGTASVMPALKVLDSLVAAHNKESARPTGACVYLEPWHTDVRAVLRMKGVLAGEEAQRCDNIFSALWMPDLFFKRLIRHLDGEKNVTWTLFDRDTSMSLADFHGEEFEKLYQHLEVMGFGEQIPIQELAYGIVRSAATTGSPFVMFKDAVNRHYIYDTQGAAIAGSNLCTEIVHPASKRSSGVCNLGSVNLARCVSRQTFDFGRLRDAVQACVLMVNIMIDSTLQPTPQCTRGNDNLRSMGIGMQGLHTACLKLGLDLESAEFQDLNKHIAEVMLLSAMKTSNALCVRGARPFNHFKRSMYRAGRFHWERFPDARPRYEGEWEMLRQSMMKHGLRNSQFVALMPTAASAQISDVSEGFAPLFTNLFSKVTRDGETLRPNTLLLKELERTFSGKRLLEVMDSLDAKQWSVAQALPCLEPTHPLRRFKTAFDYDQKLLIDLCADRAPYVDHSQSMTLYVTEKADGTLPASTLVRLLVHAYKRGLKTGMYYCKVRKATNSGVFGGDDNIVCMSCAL
UniProt Q2HR67: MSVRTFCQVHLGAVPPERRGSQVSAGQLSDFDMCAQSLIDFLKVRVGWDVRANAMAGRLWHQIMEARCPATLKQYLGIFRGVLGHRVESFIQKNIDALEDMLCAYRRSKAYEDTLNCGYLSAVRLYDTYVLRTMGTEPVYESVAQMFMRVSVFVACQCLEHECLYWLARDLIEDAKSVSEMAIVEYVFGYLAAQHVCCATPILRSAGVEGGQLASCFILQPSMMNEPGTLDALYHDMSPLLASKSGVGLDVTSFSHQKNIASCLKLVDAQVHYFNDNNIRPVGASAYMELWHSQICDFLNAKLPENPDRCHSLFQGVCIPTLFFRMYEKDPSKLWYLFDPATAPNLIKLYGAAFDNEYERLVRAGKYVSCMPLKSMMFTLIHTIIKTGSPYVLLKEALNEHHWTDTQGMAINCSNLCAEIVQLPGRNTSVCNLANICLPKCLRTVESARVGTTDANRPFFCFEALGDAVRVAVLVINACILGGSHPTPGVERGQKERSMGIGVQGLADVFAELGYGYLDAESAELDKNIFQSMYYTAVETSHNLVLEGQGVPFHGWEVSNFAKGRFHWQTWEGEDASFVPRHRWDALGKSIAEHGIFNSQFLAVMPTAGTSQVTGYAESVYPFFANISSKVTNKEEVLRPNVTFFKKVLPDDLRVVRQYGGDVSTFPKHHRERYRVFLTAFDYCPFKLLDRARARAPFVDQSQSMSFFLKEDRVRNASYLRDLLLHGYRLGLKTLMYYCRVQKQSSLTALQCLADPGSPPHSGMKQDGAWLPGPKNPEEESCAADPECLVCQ
UniProt Q9NRW3: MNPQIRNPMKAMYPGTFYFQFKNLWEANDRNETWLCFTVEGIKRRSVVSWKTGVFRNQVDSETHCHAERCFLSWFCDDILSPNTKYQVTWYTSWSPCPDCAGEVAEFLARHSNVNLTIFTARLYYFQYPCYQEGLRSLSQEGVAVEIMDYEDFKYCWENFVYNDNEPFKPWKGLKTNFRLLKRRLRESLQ
UniProt Q96AK3: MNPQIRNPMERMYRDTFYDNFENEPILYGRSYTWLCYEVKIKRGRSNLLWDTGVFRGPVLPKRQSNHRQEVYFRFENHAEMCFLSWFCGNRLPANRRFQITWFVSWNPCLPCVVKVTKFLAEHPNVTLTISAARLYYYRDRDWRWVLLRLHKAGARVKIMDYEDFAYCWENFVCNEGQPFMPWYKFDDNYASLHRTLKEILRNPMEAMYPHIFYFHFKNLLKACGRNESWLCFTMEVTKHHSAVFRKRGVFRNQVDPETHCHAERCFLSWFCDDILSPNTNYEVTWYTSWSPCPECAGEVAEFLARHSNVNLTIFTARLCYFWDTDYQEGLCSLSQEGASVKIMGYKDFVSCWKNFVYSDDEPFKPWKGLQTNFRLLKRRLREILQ

What was measured:
[1] = biological target: HSV-1 FLAG-ICP6 (large subunit of the HSV-1 ribonucleotide reductase) (HSV-1) (UniProt P08543); assay: co-IP
[2] = biological target: KSHV ORF61-FLAG (large subunit of the KSHV ribonucleotide reductase) (KSHV) (UniProt Q2HR67); assay: co-IP

Question: Which results are given for “human APOBEC3A-HA (from UniProt P31941-1 1-199) (enzyme)”?
Answer: binding [1]: binds; binding [2]: binds

Question: “human APOBEC3C-HA (from UniProt Q9NRW3 1-190) (enzyme)” was tested. Which binding [1] did it give?
Answer: The binding was “binds weakly”.

Question: “human APOBEC3F-HA (from UniProt Q8IUX4-1 1-373) (enzyme)” was tested. Which binding [2] did it give?
Answer: Its binding is “binds weakly”.

Question: How did the binding [1] turn out when “human APOBEC3B-HA (from UniProt Q9UH17-1 1-382) (enzyme)” was run?
Answer: The binding was “binds weakly”.

Question: And the binding [2]?
Answer: Its binding is “binds”.

Question: How did the binding [1] turn out when “human APOBEC3D-HA (from UniProt Q96AK3 1-386) (enzyme)” was run?
Answer: Its binding is “binds weakly”.

Question: What about the binding [2] of the same substance?
Answer: The binding was “binds weakly”.
